Data taken from the supplement of paper PMC10849652.
This is one part of the list.

Amino acid sequences for entries named in this document (tags omitted). A change or cut given only in a name is not applied to a line headed by its entry.
UniProt Q9UBK8: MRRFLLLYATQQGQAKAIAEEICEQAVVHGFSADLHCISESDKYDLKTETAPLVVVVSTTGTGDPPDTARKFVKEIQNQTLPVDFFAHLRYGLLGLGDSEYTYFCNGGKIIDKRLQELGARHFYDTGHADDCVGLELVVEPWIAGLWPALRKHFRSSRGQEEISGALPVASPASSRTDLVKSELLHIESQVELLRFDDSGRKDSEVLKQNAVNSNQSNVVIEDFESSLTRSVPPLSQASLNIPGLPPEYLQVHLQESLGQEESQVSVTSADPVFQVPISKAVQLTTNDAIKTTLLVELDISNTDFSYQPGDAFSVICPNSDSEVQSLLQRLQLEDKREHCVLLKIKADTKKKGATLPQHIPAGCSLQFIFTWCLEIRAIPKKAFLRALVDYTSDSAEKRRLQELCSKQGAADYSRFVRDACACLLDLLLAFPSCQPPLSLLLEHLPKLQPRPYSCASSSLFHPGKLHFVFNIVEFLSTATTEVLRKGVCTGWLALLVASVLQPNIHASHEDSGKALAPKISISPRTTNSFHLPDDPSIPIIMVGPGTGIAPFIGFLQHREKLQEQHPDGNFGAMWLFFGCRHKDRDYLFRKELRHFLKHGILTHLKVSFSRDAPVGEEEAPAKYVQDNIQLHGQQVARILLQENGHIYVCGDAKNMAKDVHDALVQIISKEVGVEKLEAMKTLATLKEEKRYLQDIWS
UniProt Q15390: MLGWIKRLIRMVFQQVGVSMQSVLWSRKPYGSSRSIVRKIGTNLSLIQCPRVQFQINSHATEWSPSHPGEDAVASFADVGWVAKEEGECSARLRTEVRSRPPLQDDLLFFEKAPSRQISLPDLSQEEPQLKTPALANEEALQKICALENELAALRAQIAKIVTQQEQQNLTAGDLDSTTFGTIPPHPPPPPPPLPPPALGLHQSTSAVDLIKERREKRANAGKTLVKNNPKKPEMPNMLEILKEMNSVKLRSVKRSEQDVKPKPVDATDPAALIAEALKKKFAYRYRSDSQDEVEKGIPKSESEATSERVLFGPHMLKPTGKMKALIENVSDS
UniProt Q9Y6C9: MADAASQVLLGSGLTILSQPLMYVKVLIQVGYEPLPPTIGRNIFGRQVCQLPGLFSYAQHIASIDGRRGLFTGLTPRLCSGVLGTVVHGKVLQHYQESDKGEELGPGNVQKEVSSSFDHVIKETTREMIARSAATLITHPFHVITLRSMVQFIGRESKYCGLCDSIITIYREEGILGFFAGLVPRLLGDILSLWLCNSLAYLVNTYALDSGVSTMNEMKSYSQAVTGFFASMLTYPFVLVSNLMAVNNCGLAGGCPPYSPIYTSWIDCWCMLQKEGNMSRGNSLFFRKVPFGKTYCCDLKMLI
UniProt Q9BTC8: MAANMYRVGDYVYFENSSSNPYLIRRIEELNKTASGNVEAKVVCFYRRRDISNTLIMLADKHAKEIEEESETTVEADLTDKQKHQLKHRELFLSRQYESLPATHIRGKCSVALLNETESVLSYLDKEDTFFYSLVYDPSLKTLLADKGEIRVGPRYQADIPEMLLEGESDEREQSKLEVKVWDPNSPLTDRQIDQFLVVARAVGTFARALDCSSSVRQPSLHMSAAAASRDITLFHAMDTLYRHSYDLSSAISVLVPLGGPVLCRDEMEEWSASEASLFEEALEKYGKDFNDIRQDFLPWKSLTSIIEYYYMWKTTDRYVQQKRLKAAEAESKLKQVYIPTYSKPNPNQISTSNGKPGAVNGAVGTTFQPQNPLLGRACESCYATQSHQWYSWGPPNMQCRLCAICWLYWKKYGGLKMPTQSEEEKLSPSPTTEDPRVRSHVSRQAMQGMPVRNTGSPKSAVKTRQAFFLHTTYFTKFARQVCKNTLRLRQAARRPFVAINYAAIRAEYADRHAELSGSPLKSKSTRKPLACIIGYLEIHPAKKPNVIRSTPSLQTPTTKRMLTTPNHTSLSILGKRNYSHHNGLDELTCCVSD
UniProt Q9HD23: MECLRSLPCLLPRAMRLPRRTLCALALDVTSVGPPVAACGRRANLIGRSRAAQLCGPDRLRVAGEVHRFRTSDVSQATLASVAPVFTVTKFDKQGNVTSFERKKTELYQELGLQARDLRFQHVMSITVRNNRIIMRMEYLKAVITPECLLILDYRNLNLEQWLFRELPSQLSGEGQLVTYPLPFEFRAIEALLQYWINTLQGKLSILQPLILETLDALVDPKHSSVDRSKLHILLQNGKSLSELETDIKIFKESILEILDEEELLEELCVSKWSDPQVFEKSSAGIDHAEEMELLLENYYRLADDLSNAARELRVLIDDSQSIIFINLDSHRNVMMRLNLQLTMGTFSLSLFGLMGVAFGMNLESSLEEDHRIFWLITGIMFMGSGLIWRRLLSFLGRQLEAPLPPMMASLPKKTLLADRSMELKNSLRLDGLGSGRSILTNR
UniProt Q9BUK6: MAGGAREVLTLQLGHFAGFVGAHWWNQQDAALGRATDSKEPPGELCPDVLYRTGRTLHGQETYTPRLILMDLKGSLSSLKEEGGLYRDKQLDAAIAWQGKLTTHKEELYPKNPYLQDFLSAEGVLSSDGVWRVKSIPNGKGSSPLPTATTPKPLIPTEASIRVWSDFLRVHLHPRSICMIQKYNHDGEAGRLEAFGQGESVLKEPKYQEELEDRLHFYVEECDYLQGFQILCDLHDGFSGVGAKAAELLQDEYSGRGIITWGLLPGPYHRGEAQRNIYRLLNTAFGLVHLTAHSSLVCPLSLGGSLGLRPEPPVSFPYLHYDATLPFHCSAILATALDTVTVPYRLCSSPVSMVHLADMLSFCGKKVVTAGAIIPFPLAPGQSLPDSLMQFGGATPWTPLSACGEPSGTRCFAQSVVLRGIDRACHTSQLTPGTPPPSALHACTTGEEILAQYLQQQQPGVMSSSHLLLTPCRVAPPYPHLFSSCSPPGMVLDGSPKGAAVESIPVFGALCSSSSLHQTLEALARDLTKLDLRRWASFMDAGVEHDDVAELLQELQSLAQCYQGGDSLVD
UniProt Q96QG7: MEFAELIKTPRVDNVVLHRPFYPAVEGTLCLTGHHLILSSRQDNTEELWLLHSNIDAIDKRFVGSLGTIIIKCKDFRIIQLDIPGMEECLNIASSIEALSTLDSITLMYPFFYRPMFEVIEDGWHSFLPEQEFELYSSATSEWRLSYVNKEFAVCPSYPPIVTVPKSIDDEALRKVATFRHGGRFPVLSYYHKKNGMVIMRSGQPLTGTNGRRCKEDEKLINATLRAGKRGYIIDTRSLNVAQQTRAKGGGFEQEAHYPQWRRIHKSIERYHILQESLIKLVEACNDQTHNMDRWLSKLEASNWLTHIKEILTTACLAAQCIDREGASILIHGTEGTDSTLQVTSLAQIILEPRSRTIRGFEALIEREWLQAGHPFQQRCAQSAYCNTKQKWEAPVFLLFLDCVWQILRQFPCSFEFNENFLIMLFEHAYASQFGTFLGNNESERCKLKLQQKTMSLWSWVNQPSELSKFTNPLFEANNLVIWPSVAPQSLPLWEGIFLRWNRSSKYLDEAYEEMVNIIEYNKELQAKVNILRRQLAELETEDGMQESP
UniProt P49914: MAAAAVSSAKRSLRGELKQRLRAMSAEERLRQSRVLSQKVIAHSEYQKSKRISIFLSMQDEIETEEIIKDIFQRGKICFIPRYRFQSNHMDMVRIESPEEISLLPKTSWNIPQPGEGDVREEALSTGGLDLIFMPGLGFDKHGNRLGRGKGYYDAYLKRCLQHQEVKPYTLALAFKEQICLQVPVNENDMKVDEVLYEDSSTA
UniProt Q9Y217: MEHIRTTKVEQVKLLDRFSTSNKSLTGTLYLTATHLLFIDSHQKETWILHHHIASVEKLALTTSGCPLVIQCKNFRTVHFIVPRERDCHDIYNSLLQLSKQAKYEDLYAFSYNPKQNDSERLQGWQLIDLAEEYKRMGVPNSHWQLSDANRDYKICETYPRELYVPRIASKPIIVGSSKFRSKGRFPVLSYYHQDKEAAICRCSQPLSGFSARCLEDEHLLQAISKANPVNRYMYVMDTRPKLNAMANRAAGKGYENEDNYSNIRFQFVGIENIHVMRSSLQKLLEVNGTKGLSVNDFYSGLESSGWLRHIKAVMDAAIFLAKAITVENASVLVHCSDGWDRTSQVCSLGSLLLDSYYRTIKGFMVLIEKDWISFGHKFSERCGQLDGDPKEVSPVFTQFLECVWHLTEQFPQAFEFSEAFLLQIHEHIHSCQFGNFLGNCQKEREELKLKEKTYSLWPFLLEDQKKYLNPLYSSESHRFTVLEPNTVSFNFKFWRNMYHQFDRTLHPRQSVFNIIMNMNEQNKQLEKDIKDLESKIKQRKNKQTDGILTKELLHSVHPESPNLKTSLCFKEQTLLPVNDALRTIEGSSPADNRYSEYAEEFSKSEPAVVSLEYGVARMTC
UniProt Q765P7: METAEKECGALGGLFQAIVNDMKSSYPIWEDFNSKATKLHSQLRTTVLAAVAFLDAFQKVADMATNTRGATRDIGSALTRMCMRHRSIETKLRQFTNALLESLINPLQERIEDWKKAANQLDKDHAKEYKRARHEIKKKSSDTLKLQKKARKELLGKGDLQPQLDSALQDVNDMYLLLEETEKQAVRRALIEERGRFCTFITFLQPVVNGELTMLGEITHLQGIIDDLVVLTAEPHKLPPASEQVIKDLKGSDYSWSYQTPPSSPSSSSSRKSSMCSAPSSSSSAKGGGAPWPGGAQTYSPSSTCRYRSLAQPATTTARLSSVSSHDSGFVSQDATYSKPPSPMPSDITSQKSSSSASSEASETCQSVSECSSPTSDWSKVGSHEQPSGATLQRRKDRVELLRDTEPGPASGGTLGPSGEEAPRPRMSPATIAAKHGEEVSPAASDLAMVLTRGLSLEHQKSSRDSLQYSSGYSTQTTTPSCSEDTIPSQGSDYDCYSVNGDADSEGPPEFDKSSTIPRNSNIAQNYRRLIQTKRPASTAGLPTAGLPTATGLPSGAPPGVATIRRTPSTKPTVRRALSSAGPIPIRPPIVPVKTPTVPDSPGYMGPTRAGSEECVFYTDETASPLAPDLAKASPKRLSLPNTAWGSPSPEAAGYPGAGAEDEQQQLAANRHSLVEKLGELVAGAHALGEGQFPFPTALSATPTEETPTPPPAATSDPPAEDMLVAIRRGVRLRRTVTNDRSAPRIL
UniProt Q86UE4: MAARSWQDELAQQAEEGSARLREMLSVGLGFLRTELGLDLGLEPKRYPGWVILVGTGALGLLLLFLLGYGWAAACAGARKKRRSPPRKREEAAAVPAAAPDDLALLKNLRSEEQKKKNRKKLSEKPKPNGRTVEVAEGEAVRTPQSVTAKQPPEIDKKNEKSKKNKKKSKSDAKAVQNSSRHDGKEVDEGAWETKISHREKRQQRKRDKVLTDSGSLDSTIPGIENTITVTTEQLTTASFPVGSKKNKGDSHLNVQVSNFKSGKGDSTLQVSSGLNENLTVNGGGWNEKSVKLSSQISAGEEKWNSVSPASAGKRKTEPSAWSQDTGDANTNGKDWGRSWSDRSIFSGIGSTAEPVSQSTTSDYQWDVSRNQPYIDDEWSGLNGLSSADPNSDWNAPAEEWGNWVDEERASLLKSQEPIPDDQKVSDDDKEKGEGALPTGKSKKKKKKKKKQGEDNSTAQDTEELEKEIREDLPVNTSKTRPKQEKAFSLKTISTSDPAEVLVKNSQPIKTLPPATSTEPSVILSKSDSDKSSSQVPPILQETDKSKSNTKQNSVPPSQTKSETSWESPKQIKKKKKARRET
UniProt Q15800: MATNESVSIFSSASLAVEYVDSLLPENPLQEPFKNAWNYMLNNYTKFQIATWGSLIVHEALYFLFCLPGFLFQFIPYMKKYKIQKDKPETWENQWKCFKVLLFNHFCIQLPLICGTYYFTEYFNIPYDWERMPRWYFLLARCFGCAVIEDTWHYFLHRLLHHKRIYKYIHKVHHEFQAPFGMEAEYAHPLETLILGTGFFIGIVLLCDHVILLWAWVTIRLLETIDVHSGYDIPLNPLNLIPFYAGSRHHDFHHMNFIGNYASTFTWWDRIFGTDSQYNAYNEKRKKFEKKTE
UniProt P03928: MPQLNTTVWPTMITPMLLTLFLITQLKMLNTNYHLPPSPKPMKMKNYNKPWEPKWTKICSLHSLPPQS
UniProt P13995: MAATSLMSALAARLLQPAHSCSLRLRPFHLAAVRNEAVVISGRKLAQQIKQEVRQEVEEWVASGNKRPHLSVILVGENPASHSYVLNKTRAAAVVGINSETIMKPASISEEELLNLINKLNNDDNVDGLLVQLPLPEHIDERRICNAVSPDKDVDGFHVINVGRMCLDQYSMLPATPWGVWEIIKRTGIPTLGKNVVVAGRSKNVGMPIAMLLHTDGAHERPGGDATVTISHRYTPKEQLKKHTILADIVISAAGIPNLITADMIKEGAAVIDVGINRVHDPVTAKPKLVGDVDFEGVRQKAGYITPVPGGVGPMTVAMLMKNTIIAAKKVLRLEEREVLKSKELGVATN

What was measured:
Assay in all cases: log2 fold change, soluble protein after heating vs DMSO (PISA); higher = thermal stabilisation; K562 lysate, 10 uM; active = over 0.2 and 3.5 SD of the protein, either way, in both replicates (recomputed)
erlotinib = compound: C#Cc1cccc(Nc2ncnc3cc(OCCOC)c(OCCOC)cc23)c1 [erlotinib]
How it was run: (§1)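 Quantification was by TMTpro 16plex LC-MS/MS with equalised channel sums, applied to the supernatant after 21,000xg for 90 min. Samples were crude K562 extract at 1 mg/mL protein in PBS pH 7.4 with 1 mM MgCl2, treated with 10 μM compound for 30 min, heated for 3 min across 48°C-58°C, pooled and brought to 0.5% NP-40 at 4°C. Values are log-two fold changes in thermal stability relative to solvent controls, from duplicates.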

[1] = compound: C/C(=N\NC(=O)C1=CC(=CC=C1)S(=O)(=O)N2CCOCC2)/C3=C(C=CC(=C3)Cl)O
How it was run: as §1

[2] = compound: C1=CC(=CC=C1C2=NC3=C(N2)C=C(C=C3)C(=O)N)OC4=CC=C(C=C4)Cl
How it was run: as §1

[3] = compound: C1=CC2=C(C=CC(=C2)/C=C\3/C(=O)NC(=NCC4=CC=CS4)S3)N=C1
How it was run: as §1

[4] = compound: C1=CC2=NC=CN=C2C=C1/C=C/3\C(=O)NC(=O)S3
How it was run: as §1

[5] = compound: C1=CC=C(C=C1)C2=NC(=C(N2)C3=CC=NC=C3)C4=CC(=C(C=C4)Cl)O
How it was run: as §1

[6] = compound: C1=CC=C2C(=C1)C3=NNC4=CC=CC(=C43)C2=O
How it was run: as §1

[7] = compound: C1CCN(C1)C(=O)NC2=CC=CC(=C2)NC3=NC=C(C(=N3)NCCC4=CN=CN4)Br
How it was run: as §1

[8] = compound: C1CN(CCC1(CC2=CC=C(C=C2)Cl)N)C3=NC=NC4=C3C=CN4
How it was run: as §1

IRAK-1-4 Inhibitor I = compound: C1COCCN1CCN2C3=CC=CC=C3N=C2NC(=O)C4=CC(=CC=C4)[N+](=O)[O-] [IRAK-1-4 Inhibitor I]
How it was run: as §1

Measured: log2 fold change

MTRR isoform 1 (UniProt Q9UBK8)
inactive: erlotinib 0.006 | [1] -0.046 | [2] 0.017 | [3] 0.007 | [4] -0.048 | [5] -0.012 | [6] -0.028 | [7] -0.031 | [8] 0.013 | IRAK-1-4 Inhibitor I -0.012

MTFR1 (UniProt Q15390)
inactive: erlotinib 0.067 | [1] 0.006 | [2] -0.004 | [3] 0.05 | [4] -0.058 | [5] -0.016 | [6] -0.052 | [7] -0.033 | [8] -0.014 | IRAK-1-4 Inhibitor I 0.008

MRTO4 (UniProt Q9UKD2)
inactive: erlotinib -0.019 | [1] -0.001 | [2] -0.007 | [3] -0.003 | [4] -0.009 | [5] 0.001 | [6] 0.019 | [7] -0.02 | [8] -0.01 | IRAK-1-4 Inhibitor I -0.033

MTM1 (UniProt Q13496)
inactive: erlotinib -0.013 | [1] -0.01 | [2] 0.04 | [3] -0.022 | [4] -0.031 | [5] 0 | [6] 0.036 | [7] -0.022 | [8] -0.001 | IRAK-1-4 Inhibitor I 0.011

Two entries picked at random from those above:
MTRR isoform 1 (UniProt Q9UBK8)
inactive: erlotinib 0.006 | [1] -0.046 | [2] 0.017 | [3] 0.007 | [4] -0.048 | [5] -0.012 | [6] -0.028 | [7] -0.031 | [8] 0.013 | IRAK-1-4 Inhibitor I -0.012

MTFR1 (UniProt Q15390)
inactive: erlotinib 0.067 | [1] 0.006 | [2] -0.004 | [3] 0.05 | [4] -0.058 | [5] -0.016 | [6] -0.052 | [7] -0.033 | [8] -0.014 | IRAK-1-4 Inhibitor I 0.008

Following part:

MTCH2 (UniProt Q9Y6C9)
inactive: erlotinib 0.004 | [1] 0.051 | [2] -0.081 | [3] -0.032 | [4] -0.06 | [5] -0.004 | [6] -0.031 | [7] -0.033 | [8] -0.011 | IRAK-1-4 Inhibitor I 0.027

MRPL44 (UniProt Q9H9J2)
inactive: erlotinib -0.005 | [1] 0.008 | [2] 0.051 | [3] 0.02 | [4] -0.067 | [5] 0.053 | [6] 0.004 | [7] -0.001 | [8] 0.018 | IRAK-1-4 Inhibitor I -0.024

MTA3 (UniProt Q9BTC8)
inactive: erlotinib 0.025 | [1] -0.051 | [2] 0.02 | [3] -0.022 | [4] -0.078 | [5] -0.046 | [6] 0 | [7] 0.004 | [8] 0.025 | IRAK-1-4 Inhibitor I 0.012

MRPL3 (UniProt P09001)
inactive: erlotinib -0.034 | [1] 0.002 | [2] 0.017 | [3] 0.039 | [4] -0.013 | [5] 0.004 | [6] -0.042 | [7] -0.039 | [8] -0.039 | IRAK-1-4 Inhibitor I 0.01

MTIF2 (UniProt P46199)
inactive: erlotinib -0.015 | [1] -0.212 | [2] 0.01 | [3] -0.022 | [4] 0.008 | [5] -0.001 | [6] -0.031 | [7] -0.036 | [8] -0.025 | IRAK-1-4 Inhibitor I -0.038

MRS2 (UniProt Q9HD23)
inactive: erlotinib -0.034 | [1] -0.006 | [2] 0.011 | [3] 0.136 | [4] -0.036 | [5] -0.017 | [6] -0.008 | [7] 0.007 | [8] -0.016 | IRAK-1-4 Inhibitor I -0.016

MRPS6 (UniProt P82932)
inactive: erlotinib 0.014 | [1] -0.045 | [2] 0.049 | [3] -0.04 | [4] -0.027 | [5] -0.037 | [6] -0.032 | [7] 0 | [8] 0.098 | IRAK-1-4 Inhibitor I -0.04

MSTO1 (UniProt Q9BUK6)
inactive: erlotinib 0.035 | [1] 0.027 | [2] 0.066 | [3] 0 | [4] -0.001 | [5] -0.015 | [6] 0.007 | [7] -0.027 | [8] -0.001 | IRAK-1-4 Inhibitor I 0.003

MRPS31 (UniProt Q92665)
inactive: erlotinib -0.015 | [1] -0.042 | [2] 0.056 | [3] 0.042 | [4] -0.021 | [5] -0.028 | [6] -0.048 | [7] -0.022 | [8] 0.02 | IRAK-1-4 Inhibitor I 0.005

MTMR9 (UniProt Q96QG7)
inactive: erlotinib -0.033 | [1] 0.064 | [2] 0.002 | [3] 0.078 | [4] 0.042 | [5] 0.042 | [6] -0.05 | [7] -0.02 | [8] 0.06 | IRAK-1-4 Inhibitor I 0.034

MTHFS (UniProt P49914)
inactive: erlotinib -0.041 | [1] -0.084 | [2] 0.03 | [3] 0.026 | [4] 0.037 | [5] 0.039 | [6] -0.016 | [7] -0.031 | [8] 0.04 | IRAK-1-4 Inhibitor I -0.037

MRPS18B (UniProt Q9Y676)
inactive: erlotinib 0.024 | [1] -0.065 | [2] -0.028 | [3] 0.034 | [4] -0.04 | [5] 0.033 | [6] 0.008 | [7] -0.005 | [8] -0.015 | IRAK-1-4 Inhibitor I 0.153

MTMR6 (UniProt Q9Y217)
inactive: erlotinib 0.01 | [1] 0.044 | [2] 0.002 | [3] -0.008 | [4] -0.004 | [5] -0.009 | [6] -0.052 | [7] -0.013 | [8] 0.015 | IRAK-1-4 Inhibitor I -0.013

MRPS22 (UniProt P82650)
inactive: erlotinib 0.001 | [1] -0.057 | [2] 0.035 | [3] -0.002 | [4] -0.005 | [5] -0.023 | [6] -0.107 | [7] -0.041 | [8] 0.04 | IRAK-1-4 Inhibitor I 0.025

MT-CO1 (UniProt P00395)
inactive: erlotinib -0.021 | [1] 0.069 | [2] 0.063 | [3] -0.065 | [4] 0.027 | [5] -0.033 | [6] 0.08 | [7] 0.003 | [8] -0.049 | IRAK-1-4 Inhibitor I 0.068

MRPL32 (UniProt Q9BYC8)
inactive: erlotinib -0.008 | [1] -0.028 | [2] 0.005 | [3] 0.046 | [4] -0.009 | [5] -0.005 | [6] -0.013 | [7] -0.009 | [8] 0.06 | IRAK-1-4 Inhibitor I -0.001

MTSS2 (UniProt Q765P7)
inactive: erlotinib -0.025 | [1] -0.086 | [2] 0.027 | [3] 0.034 | [4] -0.012 | [5] 0.011 | [6] -0.057 | [7] -0.056 | [8] -0.009 | IRAK-1-4 Inhibitor I -0.033

MTDH (UniProt Q86UE4)
inactive: erlotinib -0.014 | [1] -0.033 | [2] 0.036 | [3] 0.003 | [4] -0.018 | [5] -0.021 | [6] -0.026 | [7] 0.023 | [8] 0.004 | IRAK-1-4 Inhibitor I -0.006

MRPL37 (UniProt Q9BZE1)
inactive: erlotinib 0 | [1] 0.002 | [2] -0.002 | [3] 0.046 | [4] 0.03 | [5] -0.014 | [6] 0.004 | [7] 0 | [8] -0.012 | IRAK-1-4 Inhibitor I 0.036

MRPL49 (UniProt Q13405)
inactive: erlotinib -0.002 | [1] 0.091 | [2] -0.001 | [3] 0.036 | [4] 0.054 | [5] 0.009 | [6] -0.023 | [7] -0.037 | [8] 0.014 | IRAK-1-4 Inhibitor I -0.007

MSMO1 (UniProt Q15800)
inactive: erlotinib 0.09 | [1] -0.075 | [2] 0.03 | [3] 0.028 | [4] 0.062 | [5] 0.003 | [6] -0.025 | [7] -0.002 | [8] -0.019 | IRAK-1-4 Inhibitor I 0.082

MT-ATP8 (UniProt P03928)
inactive: erlotinib 0.069 | [1] 0.006 | [2] -0.006 | [3] -0.041 | [4] 0.103 | [5] -0.103 | [6] -0.062 | [7] 0.116 | [8] 0.068 | IRAK-1-4 Inhibitor I 0.033

MRPS18C (UniProt Q9Y3D5)
inactive: erlotinib -0.004 | [1] -0.853 | [2] 0.02 | [3] -0.086 | [4] -0.002 | [5] -0.023 | [6] 0.022 | [7] 0.006 | [8] 0.049 | IRAK-1-4 Inhibitor I 0.147

MTHFD2 (UniProt P13995)
inactive: erlotinib -0.031 | [1] 0.001 | [2] 0 | [3] 0.032 | [4] -0.027 | [5] -0.016 | [6] -0.027 | [7] -0.063 | [8] 0.007 | IRAK-1-4 Inhibitor I 0.02
